PubChem BioAssay AID652243 – Drosophila RNAi Screening Center, 2013
Purpose: 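Fly genes required for human androgen receptor driven transcription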 (primary screen). System: Drosophila S2R+ cells. Knock-down reagent: long dsRNA against Drosophila genes. Timing: 72 h (48 h, then 24 h hormone). Conditions: synthetic androgen R1881 at 10 nM for 24 h. Read-out: 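Firefly light from an androgen-responsive reporter and Renilla control light per well, raw and unnormalised, for each of two replicates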. Reading the numbers: firefly reporter light: higher = more light from androgen-responsive reporter; Renilla control light: higher = more constitutive control signal (cell number, transfection). Hit rule: 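Across duplicate plates, a knock-down whose log firefly/Renilla ratio shifted a set fold down or up from the GFP/LacZ control mean was a hit; the downward cut appears as both 1.5 and 3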. Meaning of the calls: active = hit: reporter lowered or raised; inactive = no hit.
The screen tested about 24,000 reagents; below is an unselected part of those with a known target gene and a result. Of all reagents, 246 (1%) are marked active. 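Plates not normalised; calls are printed but the firefly/Renilla ratio behind them is not deposited; fold cut for lowering reported inconsistently.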 Raw values vary from plate to plate and are shown uncorrected. Entries without a mark were called inactive. The numbers tell different reagents against one gene apart. Not stated in the record: the amount of reagent.

firefly reporter light, replicate 1 | firefly reporter light, replicate 2 | Renilla control light, replicate 1 | Renilla control light, replicate 2 | Gene | reagent no.
1.80e5 | 2.26e5 | 3.14e5 | 3.71e5 | CG32236 | 1
2.30e5 | 2.14e5 | 1.19e6 | 1.93e6 | CG34266 | 1
2.55e5 | 2.18e5 | 3.53e6 | 3.77e6 | Aptx | 1
4.24e5 | 2.22e5 | 1.11e6 | 8.96e5 | Aptx | 2
2.39e5 | 2.07e5 | 2.32e6 | 2.27e6 | Pfdn2 | 1
7.87e5 | 5.64e5 | 1.95e6 | 1.08e6 | Gr36b | 1
5.40e5 | 4.58e5 | 1.55e6 | 1.67e6 | Gr36b | 2
8.95e5 | 6.16e5 | 1.59e6 | 1.67e6 | Gr36b | 3
1.21e6 | 1.12e6 | 1.75e6 | 3.56e6 | Rdh1 | 1
2.56e5 | 2.51e5 | 2.47e6 | 2.39e6 | CG17732 | 1
3.45e5 | 3.62e5 | 2.97e6 | 2.09e6 | Ilp8 | 1
52061 | 62972 | 1.38e5 | 1.43e5 | app | 1
1.38e5 | 1.29e5 | 2.08e6 | 1.82e6 | app | 2
2.07e5 | 2.05e5 | 2.44e6 | 2.23e6 | app | 3
6.54e5 | 9.94e5 | 7.36e5 | 8.31e5 | app | 4
3.13e5 | 2.54e5 | 3.69e5 | 3.04e5 | CG18507 | 1
2.98e5 | 2.88e5 | 1.88e6 | 1.91e6 | CG18507 | 2
2.31e5 | 2.68e5 | 2.78e6 | 2.21e6 | Iyd | 1
1.88e5 | 1.78e5 | 3.02e6 | 1.89e6 | Iyd | 2
1.14e5 | 1.65e5 | 2.91e6 | 2.91e6 | CG8157 | 1
4.63e5 | 5.18e5 | 3.30e6 | 4.46e6 | CG8157 | 2
6.40e5 | 8.03e5 | 7.20e5 | 9.28e5 | CG8157 | 3
85668 | 77843 | 3.60e5 | 3.70e5 | CG32170 | 1
2.47e5 | 2.05e5 | 2.97e6 | 2.55e6 | Srrm1 | 1
1.33e5 | 1.53e5 | 1.00e6 | 1.54e6 | Sodh1 | 1
4.03e5 | 4.71e5 | 6.00e5 | 5.53e5 | Sodh1 | 2
2.45e5 | 2.38e5 | 2.88e6 | 2.56e6 | CG6901 | 1
2.40e5 | 2.12e5 | 2.76e5 | 3.15e5 | CG6901 | 2
78251 | 91079 | 2.08e6 | 2.08e6 | DJ-1alpha | 1
65358 | 46933 | 3.75e5 | 4.27e5 | ATP8B | 1
2.93e5 | 1.53e5 | 1.52e6 | 1.50e6 | CG18814 | 1
1.16e5 | 1.19e5 | 2.33e5 | 2.45e5 | CG32182 | 1
9.42e5 | 1.51e6 | 5.79e5 | 9.14e5 | CG32182 | 2
7.45e5 | 8.00e5 | 1.84e6 | 2.02e6 | ft | 1
4.50e5 | 2.86e5 | 3.26e6 | 2.46e6 | Dyb | 1
9.82e5 | 1.03e6 | 1.36e6 | 1.91e6 | Dyb | 2
6.47e5 | 5.71e5 | 1.63e6 | 1.41e6 | Dyb | 3
3.36e5 | 2.97e5 | 3.48e6 | 3.34e6 | p-cup | 1
2.54e5 | 1.28e5 | 6.79e5 | 3.64e5 | cactin | 1
1.96e5 | 1.19e5 | 2.05e6 | 9.48e5 | Gal | 1
5.62e5 | 4.97e5 | 6.97e5 | 6.50e5 | Gal | 2

Not a retest: entries from further up.
firefly reporter light, replicate 1 | firefly reporter light, replicate 2 | Renilla control light, replicate 1 | Renilla control light, replicate 2 | Gene | reagent no.
7.87e5 | 5.64e5 | 1.95e6 | 1.08e6 | Gr36b | 1
5.40e5 | 4.58e5 | 1.55e6 | 1.67e6 | Gr36b | 2
